One assay has as its target GST-GATAD2B (human) (UniProt Q8WXI9). The experiment in a line: pull-down; GST pull-down; Venus-flag-MYC detected in complex with GST-GATAD2B; conditions not given.
Assay [1] concerns the target Nanoluc-tagged GATAD2B (human) (UniProt Q8WXI9). The assay is described as follows: FRET or BRET; BRETn saturation (OncoPPi screen): NLuc-GATAD2B as donor and Venus-tagged genes as acceptors, co-transfected pairwise into HEK293T cells in 1536-well plates; read 48 h after transfection with furimazine. (Bioluminescence resonance energy transfer reports proximity on the nanometre scale.)

Sequences of proteins named here, by UniProt entry; tags and fusion partners are left off.
UniProt Q8WXI9: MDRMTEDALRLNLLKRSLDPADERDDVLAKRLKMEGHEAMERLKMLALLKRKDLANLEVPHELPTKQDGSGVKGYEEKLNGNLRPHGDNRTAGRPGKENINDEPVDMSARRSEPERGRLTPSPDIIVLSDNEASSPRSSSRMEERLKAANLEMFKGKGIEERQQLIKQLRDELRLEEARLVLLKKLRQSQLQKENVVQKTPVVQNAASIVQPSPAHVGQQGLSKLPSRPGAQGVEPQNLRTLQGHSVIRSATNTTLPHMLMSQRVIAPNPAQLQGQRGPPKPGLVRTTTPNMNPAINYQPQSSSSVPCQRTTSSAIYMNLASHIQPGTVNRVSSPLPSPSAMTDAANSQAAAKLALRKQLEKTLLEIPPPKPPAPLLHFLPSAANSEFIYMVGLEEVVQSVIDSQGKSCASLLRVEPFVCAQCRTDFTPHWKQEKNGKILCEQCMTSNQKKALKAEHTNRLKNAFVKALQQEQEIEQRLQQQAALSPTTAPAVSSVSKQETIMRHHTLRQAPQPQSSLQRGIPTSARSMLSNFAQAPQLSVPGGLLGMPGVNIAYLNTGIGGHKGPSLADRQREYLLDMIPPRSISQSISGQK
UniProt P01106: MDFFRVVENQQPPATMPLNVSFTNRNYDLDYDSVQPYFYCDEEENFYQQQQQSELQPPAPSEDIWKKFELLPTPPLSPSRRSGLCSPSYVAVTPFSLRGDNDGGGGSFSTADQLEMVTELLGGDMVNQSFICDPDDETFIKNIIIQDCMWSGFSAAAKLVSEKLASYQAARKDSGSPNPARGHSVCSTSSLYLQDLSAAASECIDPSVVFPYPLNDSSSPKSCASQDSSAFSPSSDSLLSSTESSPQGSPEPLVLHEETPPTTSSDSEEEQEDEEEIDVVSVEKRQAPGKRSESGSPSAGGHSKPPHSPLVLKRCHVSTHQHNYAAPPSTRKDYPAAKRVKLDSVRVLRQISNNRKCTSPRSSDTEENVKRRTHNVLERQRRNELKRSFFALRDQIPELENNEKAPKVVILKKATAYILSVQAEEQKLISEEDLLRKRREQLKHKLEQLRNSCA

Results are given in words; binding and its absence hold for the method and conditions named. In cells and extracts the contact can be indirect. Some binding calls cover weakened binding; strength is not graded here.

These results are taken from paper PMC6048166.

On to “Venus-flag-MYC (from UniProt P01106 1-454)”, for which the binding result with GST-GATAD2B (human) was “binds”.

With “Venus-tagged MYC (from UniProt P01106 1-454)”, the binding entry in assay [1] was “binds”.
